Measured values from PubChem BioAssay AID504467 (National Center for Advancing Translational Sciences (NCATS), 2011).
Out of some 330,000 compounds screened, about 7,700 (2.3%) were called active. Inconclusive means that the source gave no clear call. Such entries were picked first, then a sample of the others. The call rests on the fitted dose curve; in most records, active means well fitted inhibition curve with a large enough effect; inconclusive means small, poorly fitted or top-dose-only effect, or effect the other way; inactive means flat fitted curve, though single readings scatter. Where the call is inconclusive, the potency comes from a doubtful curve fit.

Assay: qHTS screen for small molecules that inhibit ELG1-dependent DNA repair in human embryonic kidney (HEK293T) cells expressing luciferase-tagged ELG1; further: nearly all actives have a fitted effect of over 55% in size
Conditions: HEK293T ELG1-luciferase reporter, luminescence, 16 h, DNA damage induced by 5-fluorouridine; series mostly up to 46.1 µM
Summary of the method: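 Overnight (16 hr) co-exposure of 2,000 cells/well to 5-fluorouridine and compound at 37 °C preceded detection. Luciferase was quantified via ONE-Glo luminescence; loss of signal denotes inhibition.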
Potency means the concentration at half of the fitted maximal effect.

| Structure (SMILES) | Potency |
| --- | --- |
| Cc1ccc(NC(=O)CN(C)C(=O)COC(=O)c2ccc(NC(=O)CC#N)cc2)cc1 | inactive |
| COc1ccccc1OCc1ccc(C(=O)N(C)C)o1 | inconclusive: 20.6 µM [activator, single point] |
| O=C(CCNS(=O)(=O)c1ccccc1C(F)(F)F)N1CCCCCCC1 | inactive |
| COc1ccc(NC(=O)c2cc3nc(-c4ccccc4)cc(C)n3n2)cc1OC | active: 10.3 µM |
| Clc1ccc(N=NN2CCOCC2)cc1 | inconclusive: 6.51 µM [activator, partial curve] |
| CCOc1cc(C2c3c(oc4cc(C)c(Cl)cc4c3=O)C(=O)N2Cc2ccco2)ccc1O (configuration not stated) | inconclusive: 2.06 µM [inhibitor, partial curve] |
| CCCCCn1c(N)c(-c2nc3ccccc3o2)c2c([N+](=O)[O-])nn(C)c(=O)c21 | inconclusive: 2.91 µM [inhibitor, partial curve, poor fit] |
| Cn1c(=O)[nH]c(=O)c2c1nc1n2CCN1Cc1ccccc1 | inconclusive: 25.9 µM [activator, partial curve, poor fit] |
| c1ccc(-c2noc(-c3ccco3)n2)nc1 | inconclusive: 8.2 µM [activator, partial curve] |
| CCOC(=O)c1c(C)c(C(=O)NCc2ccco2)c(C)n1Cc1ccccc1 | inactive |
| C/C(=N\Nc1nc(C)cc(-c2ccccc2)n1)c1ccccc1 | inconclusive: 16.4 µM [inhibitor, partial curve, poor fit] |
| CN(C)c1cccc(C(=O)NCc2ccc(Cl)cc2)c1 | inconclusive: 23.1 µM [inhibitor, single point] |
| Cc1ccc(C)c(NC(=O)CSc2nnc(-c3ccccc3)o2)c1 | inactive |
| COc1ccc(-c2cc(-c3c(O)c(OC)c4occc4c3OC)[nH]n2)cc1OC | active: 25.9 µM |
| COc1ccc(-c2noc(N3CCC(C(=O)NCCCN4CCCC(C)C4)CC3)n2)cc1 (configuration not stated) | inconclusive: 10.3 µM [activator, partial curve] |
| COc1cc(OC)cc(-c2cc(N)n(S(=O)(=O)c3cccc4nsnc34)n2)c1 | inconclusive: 29.1 µM [inhibitor, single point] |
| CNC(=O)COC(=O)c1ccc([N+](=O)[O-])cc1Cl | inconclusive: 3.66 µM [activator, full curve, poor fit] |
| CCOc1ccc(NC(=O)C(c2ccccn2)N(C(=O)CCl)c2ccc(OC)cc2)cc1 (configuration not stated) | inconclusive: 13 µM [activator, partial curve] |
| CCC1(CC)NC(=O)N(CC(=O)OCC(=O)c2ccccc2OC)C1=O | inconclusive: 20.6 µM [activator, single point] |
| CCCCCCCCC(=O)NNC(=O)c1c(O)c2ccccc2n(CCC)c1=O | inactive |
| CCOc1cc(C(=O)NCCCn2ccnc2)cc(OCC)c1OCC | inconclusive: 18.4 µM [inhibitor, single point] |
| Fc1ccc(-n2nnc(-c3ccnc4ccccc34)n2)cc1 | inconclusive: 16.4 µM [activator, partial curve] |
| CCOC(=O)N1CCN(C(=O)COC(=O)CNC(=O)c2ccc(OCC)c(OCC)c2)CC1 | inactive |
| CC1CCN(CCc2nc3cc(NC(=O)C(C)C)ccc3n2C)CC1 | inactive |

Pulled one by one from the entries so far (2):

| Structure (SMILES) | Potency |
| --- | --- |
| CC1CCN(CCc2nc3cc(NC(=O)C(C)C)ccc3n2C)CC1 | inactive |
| CCC1(CC)NC(=O)N(CC(=O)OCC(=O)c2ccccc2OC)C1=O | inconclusive: 20.6 µM [activator, single point] |

Further records:

| Structure (SMILES) | Potency |
| --- | --- |
| CCOc1ccccc1NC(=O)C(OC(=O)c1ccccc1NS(=O)(=O)c1cccs1)c1ccccc1 (configuration not stated) | inactive |
| O=C(Nc1ccc(Cl)c(Cl)c1)c1ccc(Cn2cc(Cl)cn2)cc1 | inactive |
| C=CCOc1c(Br)cc(CNc2ccc3[nH]c(=O)[nH]c3c2)cc1OCC | inconclusive: 0.82 µM [inhibitor, full curve] |
| CCn1c2ccccc2c2cc(NC(=O)c3cc(C)on3)ccc21 | inconclusive: 18.3 µM [inhibitor, single point] |
| COCCNC(=O)c1ccc2c(c1)CCN2S(C)(=O)=O | inactive |
| CC(C)(C)OC(=O)NCC(=O)NCC(=O)OCc1ccccc1 | inactive |
| CC(C)C(NC(=O)c1c(F)cccc1F)C(=O)OCN1C(=O)c2ccccc2C1=O (configuration not stated) | inconclusive: 18.3 µM [activator, single point] |
| COc1ccc(C(=O)NC(=S)NNC(=O)c2ccncc2)cc1Br | inactive |
| Cc1ccccc1NC(=O)CSCc1nc(N)nc(Nc2ccccc2C)n1 | inactive |
| N#CCCNC(=O)Cn1c(COc2ccc(Cl)cc2)nc2ccccc21 | inconclusive: 16.4 µM [activator, partial curve, poor fit] |
| Cc1ccccc1Nc1c(-c2cccnc2)nc2cccc(C)n12 | inconclusive: 18.3 µM [inhibitor, single point] |
| O=C1C(Cc2ccccc2)Nc2ncnc(N3CCN(c4ccccc4)CC3)c2N1Cc1ccccc1 (configuration not stated) | inactive |
| COc1ccc(-n2nnc3c(SC(C(C)=O)C(=O)N(C)C)ncnc32)cc1 (configuration not stated) | inconclusive: 20.6 µM [activator, single point] |
| CCOC(=O)c1cnc(/N=C/N(C)C)s1 | inconclusive: 23.1 µM [activator, single point] |
| COC(=O)c1ccc(NC(=O)c2c(Br)cnn2C)cc1 | inconclusive: 18.3 µM [activator, partial curve, poor fit] |
| CC(=O)Nc1cccc(C(=O)O)n1 | inactive |
| CCCc1cc(=O)[nH]c(Nc2ccc(OC)c(Cl)c2)n1 | inconclusive: 18.4 µM [inhibitor, partial curve, poor fit] |
| Cc1ccc(S(=O)(=O)N2CCOCC2)cc1C(=O)OCC(=O)N(Cc1ccccc1)C(C)C | active: 20.6 µM |
| O=C(Nc1ccc(F)cc1)C1COc2ccccc2O1 (configuration not stated) | inconclusive: 23.1 µM [activator, partial curve, poor fit] |
| C=CS(=O)(=O)N(Cc1ccc(Cl)c(Cl)c1)C[C@@H](O)CO | active: 9.2 µM |
| O=C(NCC1CCCO1)c1cn(Cc2ccccc2)nc1-c1ccccc1 (configuration not stated) | inactive |
| COc1nc(N)c(S(=O)(=O)c2ccccc2C)cc1C#N | inconclusive: 1.3 µM [activator, full curve, poor fit] |
| CCN(CC)c1ccc(C=Nc2ccc(C)cc2)c(O)c1 | inactive |
